Test results: patent US8431554B2, “Compound showing anti-inflammatory activity and antiviral activity, pharmaceutical compositions comprising the same, a process for obtaining the same and use of the same in the treatment of epidemic keratoconjunctivites and herpetic stromal keratis” (priority 2007, dated 2013)
At least one structure is not confirmed: it was looked up by name or label, or the drawing left a doubt.

Tested on: strain KOS of HSV-1 (herpetic stromal keratitis)
Assay: Murine model of herpetic stromal keratitis (HK) induced by HSV-1
Assay type: in vivo, mice
Experimental: To determine if the treatment with compound I, after viral inoculation, affected the signs of HK, male mice of 6-8 weeks were anesthetized with ketamine/xylazine intraperitoneally and infected with the strain KOS of HSV-1 in the right corneas, previously scrapped with a needle. One group of animals was treated with buffered saline solution (PBS) (control of disease), while the rest were treated topically with a concentration of 40 μM of compound I three times a day. Also, groups of animals to control the antiviral activity of aciclovir (ACV) and anti-inflammatory activity of dexamethasone (DEX) were included, both drugs were commercially available.
It was determined the incidence of the disease as well as the degree of severity of the lesions and evolution of HK was determined under a magnifying glass during 15 days. The diagnosis of the disease is based on the density of inflammatory infiltrates, lengthening of vessels with corneal invasion (neovascularization), and the presence of surface ulcers. Therefore, mice presenting swollen eyelids (blepharitis), neovascularization in more than 10% of the corneal surface, and corneal opacity with or without signs of necrosis, were considered sick of HK.
The signs of ocular signs are gradually developed from the days 6-7 post-infection (p.i.) and the percentage of animals with HK and severity of the signs of the disease on days 3, 8, and 15 p.i were recorded (FIG. 1 y 2).
To evaluate the antiviral activity of compound I, the compound was applied to a group of animals on days 1, 2 y 3 p.i., the days when multiplication of HSV-1 in the cornea occurs. Also, other groups of mice were treated with ACV—as a positive control of antiviral activity—and with DEX.
To evaluate the anti-inflammatory activity of compound I, the compound was applied on days 6, 7 and 8 p.i., the time when HK manifests.

`C[C@@H]1C[C@H]2[C@@H]3CCC4=CC(=O)C=C[C@]4(C)[C@@]3(F)[C@@H](O)C[C@]2(C)[C@@]1(O)C(=O)CO` [DEX, dexamethasone] was tested, and the “incidence of HK, in words” value (treated days 1, 2, 3 p.i., FIG. 1A) was “All the mice treated with DEX got HK”, the “HK signs, in words” value (treated days 6, 7, 8 p.i., FIG. 2A) was “Said percentages resulted similar” and the “severity of the signs of keratitis versus infection control” value (treated days 6, 7, 8 p.i., FIG. 2B) was “lower”.
